According to the supplement of paper PMC10849652:
The list shows a part of the results.

Sequences of proteins named here, by UniProt entry; tags and fusion partners are left off. A change or cut given only in a name is not applied to a line headed by its entry.
UniProt Q8WUA4: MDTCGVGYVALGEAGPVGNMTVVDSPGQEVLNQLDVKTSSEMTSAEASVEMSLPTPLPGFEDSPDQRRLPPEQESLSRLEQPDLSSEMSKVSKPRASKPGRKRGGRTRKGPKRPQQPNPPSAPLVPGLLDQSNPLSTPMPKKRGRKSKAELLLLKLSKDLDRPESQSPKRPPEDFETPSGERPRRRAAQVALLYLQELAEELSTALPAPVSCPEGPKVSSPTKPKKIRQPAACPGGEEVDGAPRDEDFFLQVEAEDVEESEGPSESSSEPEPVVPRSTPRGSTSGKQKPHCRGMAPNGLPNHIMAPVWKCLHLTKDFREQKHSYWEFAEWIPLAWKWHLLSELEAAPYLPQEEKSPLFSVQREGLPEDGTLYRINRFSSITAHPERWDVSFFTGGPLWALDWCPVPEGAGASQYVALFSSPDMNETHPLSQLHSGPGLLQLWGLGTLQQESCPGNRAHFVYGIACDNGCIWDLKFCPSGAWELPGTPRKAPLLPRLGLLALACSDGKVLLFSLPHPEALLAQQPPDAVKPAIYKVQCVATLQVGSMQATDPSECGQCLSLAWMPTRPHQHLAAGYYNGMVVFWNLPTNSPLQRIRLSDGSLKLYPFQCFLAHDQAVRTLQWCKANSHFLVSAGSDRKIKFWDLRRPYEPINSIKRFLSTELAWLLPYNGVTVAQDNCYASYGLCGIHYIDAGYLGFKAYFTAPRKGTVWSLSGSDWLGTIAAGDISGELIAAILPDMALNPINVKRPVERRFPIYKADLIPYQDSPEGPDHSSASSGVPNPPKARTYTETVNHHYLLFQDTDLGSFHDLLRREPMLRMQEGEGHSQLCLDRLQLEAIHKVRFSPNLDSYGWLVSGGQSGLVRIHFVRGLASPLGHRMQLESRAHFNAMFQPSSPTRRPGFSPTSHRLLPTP
UniProt Q8IYU2: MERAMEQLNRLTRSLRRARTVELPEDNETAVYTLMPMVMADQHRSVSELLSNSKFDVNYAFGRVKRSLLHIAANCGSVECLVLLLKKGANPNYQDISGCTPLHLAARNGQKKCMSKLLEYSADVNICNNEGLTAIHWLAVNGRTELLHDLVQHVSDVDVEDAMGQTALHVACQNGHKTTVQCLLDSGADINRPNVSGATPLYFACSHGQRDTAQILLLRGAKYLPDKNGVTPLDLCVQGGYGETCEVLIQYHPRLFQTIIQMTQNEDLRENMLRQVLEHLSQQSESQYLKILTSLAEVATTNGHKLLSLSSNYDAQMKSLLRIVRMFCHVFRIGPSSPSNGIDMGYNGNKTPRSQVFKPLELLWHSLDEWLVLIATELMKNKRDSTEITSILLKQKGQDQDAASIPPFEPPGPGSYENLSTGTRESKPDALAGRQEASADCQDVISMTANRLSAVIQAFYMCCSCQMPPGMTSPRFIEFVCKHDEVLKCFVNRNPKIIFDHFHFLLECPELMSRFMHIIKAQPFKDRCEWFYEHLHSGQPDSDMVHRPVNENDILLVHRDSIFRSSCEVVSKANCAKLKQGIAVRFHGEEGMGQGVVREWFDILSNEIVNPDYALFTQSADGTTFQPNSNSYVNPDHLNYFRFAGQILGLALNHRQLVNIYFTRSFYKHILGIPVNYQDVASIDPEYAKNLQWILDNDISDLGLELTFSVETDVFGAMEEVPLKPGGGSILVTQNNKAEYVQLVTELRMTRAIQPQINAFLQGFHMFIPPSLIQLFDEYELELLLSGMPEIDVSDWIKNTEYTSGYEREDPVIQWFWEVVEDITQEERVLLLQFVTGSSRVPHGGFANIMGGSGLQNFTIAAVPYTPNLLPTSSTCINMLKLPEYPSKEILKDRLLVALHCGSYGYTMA
UniProt P49590: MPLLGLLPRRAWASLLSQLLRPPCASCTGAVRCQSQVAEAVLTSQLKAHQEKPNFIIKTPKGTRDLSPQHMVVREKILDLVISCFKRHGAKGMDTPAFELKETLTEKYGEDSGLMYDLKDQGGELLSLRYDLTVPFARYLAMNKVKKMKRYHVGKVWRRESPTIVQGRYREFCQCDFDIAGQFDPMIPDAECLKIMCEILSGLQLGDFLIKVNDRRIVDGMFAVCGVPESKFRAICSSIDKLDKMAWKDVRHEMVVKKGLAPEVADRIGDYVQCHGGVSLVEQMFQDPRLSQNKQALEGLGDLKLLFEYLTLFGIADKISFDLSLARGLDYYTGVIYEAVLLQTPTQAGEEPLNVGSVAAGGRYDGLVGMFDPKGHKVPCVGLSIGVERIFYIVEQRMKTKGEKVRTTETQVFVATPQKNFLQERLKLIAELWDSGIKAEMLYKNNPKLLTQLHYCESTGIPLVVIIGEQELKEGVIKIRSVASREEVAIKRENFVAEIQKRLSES
UniProt Q13547, whole entry, looked up: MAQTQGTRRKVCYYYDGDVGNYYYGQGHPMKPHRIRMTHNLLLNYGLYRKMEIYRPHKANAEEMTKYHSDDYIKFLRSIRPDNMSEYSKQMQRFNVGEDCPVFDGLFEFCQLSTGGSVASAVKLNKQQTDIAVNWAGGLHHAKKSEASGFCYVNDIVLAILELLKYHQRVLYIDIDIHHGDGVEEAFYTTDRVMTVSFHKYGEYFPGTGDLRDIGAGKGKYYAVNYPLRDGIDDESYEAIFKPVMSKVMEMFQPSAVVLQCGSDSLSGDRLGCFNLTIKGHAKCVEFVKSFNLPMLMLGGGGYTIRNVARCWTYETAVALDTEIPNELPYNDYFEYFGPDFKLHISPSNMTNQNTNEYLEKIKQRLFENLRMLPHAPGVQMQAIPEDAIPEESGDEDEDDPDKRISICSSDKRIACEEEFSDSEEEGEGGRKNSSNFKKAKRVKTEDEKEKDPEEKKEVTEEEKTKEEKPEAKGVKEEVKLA
UniProt P29083: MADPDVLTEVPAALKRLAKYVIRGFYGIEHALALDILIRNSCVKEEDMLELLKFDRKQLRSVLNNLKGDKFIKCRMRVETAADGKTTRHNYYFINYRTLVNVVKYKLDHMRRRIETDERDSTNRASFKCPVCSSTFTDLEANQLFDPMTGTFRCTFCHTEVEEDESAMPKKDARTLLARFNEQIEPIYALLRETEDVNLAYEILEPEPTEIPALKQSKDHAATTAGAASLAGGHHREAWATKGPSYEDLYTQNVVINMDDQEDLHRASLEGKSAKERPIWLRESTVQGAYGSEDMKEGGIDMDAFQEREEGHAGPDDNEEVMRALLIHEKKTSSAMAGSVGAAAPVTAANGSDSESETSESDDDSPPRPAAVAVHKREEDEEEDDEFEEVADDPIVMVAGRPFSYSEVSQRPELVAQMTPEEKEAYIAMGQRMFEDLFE
UniProt P52655, whole entry, looked up: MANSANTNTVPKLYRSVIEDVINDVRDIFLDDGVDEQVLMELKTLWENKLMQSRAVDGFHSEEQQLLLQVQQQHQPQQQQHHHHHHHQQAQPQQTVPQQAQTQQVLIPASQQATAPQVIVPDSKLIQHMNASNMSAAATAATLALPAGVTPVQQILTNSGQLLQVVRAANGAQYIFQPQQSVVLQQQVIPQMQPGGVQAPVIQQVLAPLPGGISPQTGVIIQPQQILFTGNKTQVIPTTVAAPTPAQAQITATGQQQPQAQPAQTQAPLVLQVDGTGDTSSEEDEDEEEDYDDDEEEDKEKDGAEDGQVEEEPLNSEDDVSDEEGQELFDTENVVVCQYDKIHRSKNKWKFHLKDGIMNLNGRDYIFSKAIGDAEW
UniProt P69905, whole entry, looked up: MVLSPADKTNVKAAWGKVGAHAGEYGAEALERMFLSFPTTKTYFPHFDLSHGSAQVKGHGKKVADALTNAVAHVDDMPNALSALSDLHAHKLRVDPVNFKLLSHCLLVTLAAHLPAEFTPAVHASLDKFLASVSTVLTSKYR
UniProt P16401, whole entry, looked up: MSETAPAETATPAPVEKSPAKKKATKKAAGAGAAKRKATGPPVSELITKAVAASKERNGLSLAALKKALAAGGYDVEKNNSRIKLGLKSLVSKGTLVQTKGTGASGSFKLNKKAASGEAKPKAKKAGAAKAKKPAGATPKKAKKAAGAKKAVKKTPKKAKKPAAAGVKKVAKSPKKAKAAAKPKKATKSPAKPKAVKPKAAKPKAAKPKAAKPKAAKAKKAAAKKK
UniProt P69892: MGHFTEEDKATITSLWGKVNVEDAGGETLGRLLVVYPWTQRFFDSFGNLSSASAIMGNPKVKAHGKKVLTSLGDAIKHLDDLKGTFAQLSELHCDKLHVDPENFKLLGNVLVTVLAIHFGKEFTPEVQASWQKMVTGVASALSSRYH
UniProt Q68CZ6: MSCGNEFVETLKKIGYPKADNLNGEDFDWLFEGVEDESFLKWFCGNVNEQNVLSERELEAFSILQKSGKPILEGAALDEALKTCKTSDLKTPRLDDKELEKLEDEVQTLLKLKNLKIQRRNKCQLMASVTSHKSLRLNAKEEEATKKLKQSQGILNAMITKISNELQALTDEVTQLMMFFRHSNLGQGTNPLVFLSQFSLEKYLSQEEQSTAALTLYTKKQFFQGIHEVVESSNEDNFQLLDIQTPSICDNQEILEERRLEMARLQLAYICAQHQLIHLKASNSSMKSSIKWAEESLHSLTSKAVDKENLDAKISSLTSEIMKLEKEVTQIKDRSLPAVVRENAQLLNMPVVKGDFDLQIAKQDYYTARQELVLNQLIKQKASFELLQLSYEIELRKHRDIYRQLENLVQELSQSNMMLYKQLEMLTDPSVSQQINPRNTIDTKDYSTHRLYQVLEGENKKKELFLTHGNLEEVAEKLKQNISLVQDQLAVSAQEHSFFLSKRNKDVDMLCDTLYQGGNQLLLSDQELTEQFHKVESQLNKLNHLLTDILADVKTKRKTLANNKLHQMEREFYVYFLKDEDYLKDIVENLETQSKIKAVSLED
UniProt P02008: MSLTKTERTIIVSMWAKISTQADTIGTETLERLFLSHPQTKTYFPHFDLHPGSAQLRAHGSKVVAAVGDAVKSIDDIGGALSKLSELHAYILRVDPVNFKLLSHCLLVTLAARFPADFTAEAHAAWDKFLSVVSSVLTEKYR
UniProt P51858: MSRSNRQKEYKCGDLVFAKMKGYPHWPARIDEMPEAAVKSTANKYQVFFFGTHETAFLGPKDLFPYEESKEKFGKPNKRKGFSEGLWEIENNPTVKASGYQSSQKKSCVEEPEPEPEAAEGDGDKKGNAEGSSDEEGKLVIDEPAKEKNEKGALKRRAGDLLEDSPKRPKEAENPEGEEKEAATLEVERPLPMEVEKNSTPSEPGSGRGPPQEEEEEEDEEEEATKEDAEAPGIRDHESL
UniProt P09211: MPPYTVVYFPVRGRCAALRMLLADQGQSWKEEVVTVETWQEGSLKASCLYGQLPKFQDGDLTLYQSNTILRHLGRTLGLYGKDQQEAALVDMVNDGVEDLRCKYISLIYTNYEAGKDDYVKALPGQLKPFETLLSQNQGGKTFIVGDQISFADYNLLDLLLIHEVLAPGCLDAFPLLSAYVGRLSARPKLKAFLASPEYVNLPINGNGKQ
UniProt Q00403, whole entry, looked up: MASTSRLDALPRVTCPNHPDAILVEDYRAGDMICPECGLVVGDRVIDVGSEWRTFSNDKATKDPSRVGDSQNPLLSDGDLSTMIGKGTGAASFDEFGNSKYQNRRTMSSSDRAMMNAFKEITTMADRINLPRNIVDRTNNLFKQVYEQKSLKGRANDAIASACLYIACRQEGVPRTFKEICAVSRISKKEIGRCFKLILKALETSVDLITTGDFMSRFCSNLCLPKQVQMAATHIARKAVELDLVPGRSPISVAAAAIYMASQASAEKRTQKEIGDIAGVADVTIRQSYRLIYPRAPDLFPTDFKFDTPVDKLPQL
UniProt P49840: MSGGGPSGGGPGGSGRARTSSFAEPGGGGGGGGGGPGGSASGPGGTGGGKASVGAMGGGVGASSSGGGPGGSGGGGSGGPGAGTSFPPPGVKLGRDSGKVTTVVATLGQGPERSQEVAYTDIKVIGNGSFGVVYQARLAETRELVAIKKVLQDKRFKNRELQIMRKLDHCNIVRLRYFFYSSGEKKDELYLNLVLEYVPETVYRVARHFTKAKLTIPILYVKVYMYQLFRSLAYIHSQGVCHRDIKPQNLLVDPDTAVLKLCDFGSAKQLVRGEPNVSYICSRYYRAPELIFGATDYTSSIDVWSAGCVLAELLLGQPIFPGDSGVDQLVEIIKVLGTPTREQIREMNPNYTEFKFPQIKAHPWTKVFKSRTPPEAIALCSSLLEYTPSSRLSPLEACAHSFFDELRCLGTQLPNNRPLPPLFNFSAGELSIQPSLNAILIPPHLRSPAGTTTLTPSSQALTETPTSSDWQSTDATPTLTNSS

Legend:
Test in all cases: log2 fold change, soluble protein after heating vs DMSO (PISA); higher = thermal stabilisation; K562 lysate, 10 uM; active = over 0.2 and 3.5 SD of the protein, either way, in both replicates (recomputed)
erlotinib = compound: C#Cc1cccc(Nc2ncnc3cc(OCCOC)c(OCCOC)cc23)c1 [erlotinib]
Procedure, shortened: (§1)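 Thermal stability, expressed as log-two fold change relative to solvent controls, is given from duplicates. Crude K562 extract in PBS pH 7.4 with 1 mM MgCl2, at 1 mg/mL protein, was treated with 10 μM compound for 30 min and heated in aliquots for 3 min across 48°C-58°C. After pooling, adjustment to 0.5% NP-40 at 4°C and centrifugation at 21,000xg for 90 min, supernatant protein was measured by TMTpro 16plex LC-MS/MS with channel sums equalised.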

[1] = compound: C/C(=N\NC(=O)C1=CC(=CC=C1)S(=O)(=O)N2CCOCC2)/C3=C(C=CC(=C3)Cl)O
Procedure, shortened: as §1

[2] = compound: C1=CC(=CC=C1C2=NC3=C(N2)C=C(C=C3)C(=O)N)OC4=CC=C(C=C4)Cl
Procedure, shortened: as §1

[3] = compound: C1=CC2=C(C=CC(=C2)/C=C\3/C(=O)NC(=NCC4=CC=CS4)S3)N=C1
Procedure, shortened: as §1

[4] = compound: C1=CC2=NC=CN=C2C=C1/C=C/3\C(=O)NC(=O)S3
Procedure, shortened: as §1

[5] = compound: C1=CC=C(C=C1)C2=NC(=C(N2)C3=CC=NC=C3)C4=CC(=C(C=C4)Cl)O
Procedure, shortened: as §1

[6] = compound: C1=CC=C2C(=C1)C3=NNC4=CC=CC(=C43)C2=O
Procedure, shortened: as §1

[7] = compound: C1CCN(C1)C(=O)NC2=CC=CC(=C2)NC3=NC=C(C(=N3)NCCC4=CN=CN4)Br
Procedure, shortened: as §1

[8] = compound: C1CN(CCC1(CC2=CC=C(C=C2)Cl)N)C3=NC=NC4=C3C=CN4
Procedure, shortened: as §1

IRAK-1-4 Inhibitor I = compound: C1COCCN1CCN2C3=CC=CC=C3N=C2NC(=O)C4=CC(=CC=C4)[N+](=O)[O-] [IRAK-1-4 Inhibitor I]
Procedure, shortened: as §1

ibrutinib = compound: C=CC(=O)N1CCC[C@@H](n2nc(-c3ccc(Oc4ccccc4)cc3)c3c(N)ncnc32)C1 [ibrutinib]
Procedure, shortened: as §1

[9] = compound: CC(=O)c1cnc2ccc(-c3cc(Cl)c(O)c(Cl)c3)nc2c1N[C@H]1CC[C@H](CN(C)C)CC1
Procedure, shortened: as §1

ralimetinib = compound: CC(C)(C)Cn1c(N)nc2ccc(-c3[nH]c(C(C)(C)C)nc3-c3ccc(F)cc3)nc21 [ralimetinib]
Procedure, shortened: as §1

[10] = compound: CC(C)(O)CC(=O)NCCn1ccc2ncnc(Nc3ccc(Oc4cccc(C(F)(F)F)c4)c(Cl)c3)c21
Procedure, shortened: as §1

[11] = compound: CC(C)C1=C2N=C(C=C(N2N=C1)NCC3=CC=CC=C3)NCCCCCCN
Procedure, shortened: as §1

[12] = compound: CC1=C(C(CC(=O)N1)C2=CC=C(C=C2)C(F)(F)F)C(=O)NC3=C(C=C4C(=C3)C=NN4)F
Procedure, shortened: as §1

[13] = compound: CC1=C(C2=C(C=C1)C(=O)C3=CC=CC=C3N2CCCN)C
Procedure, shortened: as §1

[14] = compound: CC1=C(C=C(C=C1)NC(=O)C2=CC(=CC=C2)C(C)(C)C#N)NC3=CC4=C(C=C3)N=CN(C4=O)C
Procedure, shortened: as §1

[15] = compound: CC1=C(C=C(C=C1)NC(=O)C2=CC(=CC=C2)N(C)C)NC(=O)C3=CC=C(C=C3)O
Procedure, shortened: as §1

[16] = compound: CC1=CC=C(C=C1)SC2=C3C=C(SC3=CN=C2)C(=O)N
Procedure, shortened: as §1

Measured: log2 fold change

GTF3C2 (UniProt Q8WUA4)
inactive: erlotinib 0.019 | [1] 0.042 | [2] -0.006 | [3] 0.018 | [4] -0.048 | [5] 0.03 | [6] -0.03 | [7] -0.004 | [8] 0.03 | IRAK-1-4 Inhibitor I 0.041 | ibrutinib 0.018 | [9] -0.047 | ralimetinib 0.015 | [10] -0.031 | [11] -0.024 | [12] -0.005 | [13] -0.033 | [14] 0.019 | [15] 0.041 | [16] -0.039

HACE1 (UniProt Q8IYU2)
inactive: erlotinib 0.033 | [1] 0.083 | [2] 0.106 | [3] -0.019 | [4] 0.017 | [5] -0.189 | [6] -0.174 | [7] -0.069 | [8] 0.055 | IRAK-1-4 Inhibitor I 0.032 | ibrutinib -0.034 | [9] -0.062 | ralimetinib 0 | [10] -0.056 | [11] 0.041 | [12] -0.042 | [13] -0.042 | [14] -0.07 | [15] 0.08 | [16] 0.01

HARS2 (UniProt P49590)
inactive: erlotinib 0 | [1] -0.05 | [2] -0.051 | [3] -0.049 | [4] -0.005 | [5] -0.06 | [6] 0.079 | [7] -0.277 | [8] 0.006 | IRAK-1-4 Inhibitor I -0.022 | ibrutinib 0.049 | [9] 0.105 | ralimetinib -0.018 | [10] -0.053 | [11] -0.043 | [12] 0.022 | [13] -0.102 | [14] -0.109 | [15] 0.066 | [16] -0.054

HDAC1 (UniProt Q13547)
inactive: erlotinib 0 | [1] -0.046 | [2] -0.012 | [3] 0.015 | [4] 0.003 | [5] -0.013 | [6] -0.024 | [7] -0.014 | [8] -0.036 | IRAK-1-4 Inhibitor I -0.043 | ibrutinib -0.026 | [9] -0.001 | ralimetinib 0.031 | [10] 0.01 | [11] -0.001 | [12] 0.001 | [13] -0.008 | [14] -0.022 | [15] 0.008 | [16] 0.011

GTF2E1 (UniProt P29083)
inactive: erlotinib 0.003 | [1] -0.028 | [2] 0.005 | [3] 0.013 | [4] -0.016 | [5] 0.013 | [6] 0.028 | [7] 0.001 | [8] 0.006 | IRAK-1-4 Inhibitor I 0.024 | ibrutinib -0.03 | [9] -0.008 | ralimetinib 0.008 | [10] 0.007 | [11] 0.002 | [12] -0.002 | [13] 0.004 | [14] 0.068 | [15] -0.003 | [16] -0.017

GTF2A1 (UniProt P52655)
inactive: erlotinib 0.031 | [1] -0.008 | [2] 0.015 | [3] 0.026 | [4] -0.01 | [5] -0.038 | [6] -0.061 | [7] -0.04 | [8] -0.01 | IRAK-1-4 Inhibitor I 0.033 | ibrutinib -0.009 | [9] -0.046 | ralimetinib 0.015 | [10] -0.016 | [11] -0.036 | [12] -0.069 | [13] -0.021 | [14] -0.013 | [15] 0.008 | [16] -0.014

HBA1 (UniProt P69905)
inactive: erlotinib 0.053 | [1] -0.02 | [2] -0.059 | [3] 0.044 | [4] 0.03 | [5] -0.019 | [6] 0.036 | [7] 0.03 | [8] 0.081 | IRAK-1-4 Inhibitor I -0.012 | ibrutinib 0.011 | [9] -0.058 | ralimetinib 0.011 | [10] -0.062 | [11] -0.024 | [12] -0.062 | [13] 0.003 | [14] 0.081 | [15] -0.01 | [16] 0.043

H1-5 (UniProt P16401)
inactive: erlotinib -0.007 | [1] 0.001 | [2] -0.004 | [3] -0.021 | [4] -0.014 | [5] 0.026 | [6] 0.037 | [7] -0.001 | [8] -0.026 | IRAK-1-4 Inhibitor I 0.004 | ibrutinib -0.013 | [9] -0.009 | ralimetinib -0.067 | [10] -0.024 | [11] 0.011 | [12] -0.018 | [13] 0.167 | [14] 0.001 | [15] -0.021 | [16] -0.005

HBG2 (UniProt P69892)
inactive: erlotinib 0.015 | [1] 0.034 | [2] -0.002 | [3] 0.045 | [4] 0.007 | [5] -0.001 | [6] 0.021 | [7] 0.005 | [8] 0.04 | IRAK-1-4 Inhibitor I -0.022 | ibrutinib 0.043 | [9] -0.025 | ralimetinib -0.003 | [10] -0.034 | [11] -0.029 | [12] -0.031 | [13] -0.024 | [14] 0.028 | [15] -0.006 | [16] 0.002

H2AFX (UniProt P16104)
inactive: erlotinib -0.013 | [1] -0.089 | [2] -0.015 | [3] 0.007 | [4] -0.052 | [5] 0.052 | [6] -0.031 | [7] 0.047 | [8] -0.024 | IRAK-1-4 Inhibitor I -0.016 | ibrutinib -0.046 | [9] -0.028 | ralimetinib -0.05 | [10] -0.051 | [11] 0.069 | [12] -0.009 | [13] 0.067 | [14] 0.027 | [15] 0.007 | [16] -0.029

HAUS3 (UniProt Q68CZ6)
inactive: erlotinib 0.022 | [1] 0.01 | [2] -0.033 | [3] 0.016 | [4] -0.028 | [5] 0.004 | [6] -0.06 | [7] -0.045 | [8] 0.019 | IRAK-1-4 Inhibitor I 0.025 | ibrutinib -0.025 | [9] -0.021 | ralimetinib 0.009 | [10] -0.019 | [11] 0.001 | [12] 0.022 | [13] 0.026 | [14] 0.014 | [15] 0.025 | [16] 0.025

Copied from the results shown (3 entries):
HBG2 (UniProt P69892)
inactive: erlotinib 0.015 | [1] 0.034 | [2] -0.002 | [3] 0.045 | [4] 0.007 | [5] -0.001 | [6] 0.021 | [7] 0.005 | [8] 0.04 | IRAK-1-4 Inhibitor I -0.022 | ibrutinib 0.043 | [9] -0.025 | ralimetinib -0.003 | [10] -0.034 | [11] -0.029 | [12] -0.031 | [13] -0.024 | [14] 0.028 | [15] -0.006 | [16] 0.002

H2AFX (UniProt P16104)
inactive: erlotinib -0.013 | [1] -0.089 | [2] -0.015 | [3] 0.007 | [4] -0.052 | [5] 0.052 | [6] -0.031 | [7] 0.047 | [8] -0.024 | IRAK-1-4 Inhibitor I -0.016 | ibrutinib -0.046 | [9] -0.028 | ralimetinib -0.05 | [10] -0.051 | [11] 0.069 | [12] -0.009 | [13] 0.067 | [14] 0.027 | [15] 0.007 | [16] -0.029

HAUS3 (UniProt Q68CZ6)
inactive: erlotinib 0.022 | [1] 0.01 | [2] -0.033 | [3] 0.016 | [4] -0.028 | [5] 0.004 | [6] -0.06 | [7] -0.045 | [8] 0.019 | IRAK-1-4 Inhibitor I 0.025 | ibrutinib -0.025 | [9] -0.021 | ralimetinib 0.009 | [10] -0.019 | [11] 0.001 | [12] 0.022 | [13] 0.026 | [14] 0.014 | [15] 0.025 | [16] 0.025

Continuation.

HBZ (UniProt P02008)
inactive: erlotinib -0.008 | [1] -0.004 | [2] -0.041 | [3] 0.004 | [4] -0.005 | [5] -0.025 | [6] 0.017 | [7] -0.006 | [8] 0.028 | IRAK-1-4 Inhibitor I -0.007 | ibrutinib -0.096 | [9] -0.034 | ralimetinib 0.03 | [10] -0.024 | [11] 0 | [12] -0.076 | [13] -0.005 | [14] 0.069 | [15] -0.027 | [16] 0.041

HDGF (UniProt P51858)
inactive: erlotinib -0.02 | [1] 0.004 | [2] 0.008 | [3] -0.011 | [4] -0.011 | [5] 0.011 | [6] -0.016 | [7] 0.004 | [8] -0.011 | IRAK-1-4 Inhibitor I -0.008 | ibrutinib -0.033 | [9] 0.001 | ralimetinib -0.034 | [10] -0.003 | [11] -0.001 | [12] -0.027 | [13] -0.028 | [14] 0.004 | [15] -0.002 | [16] -0.012

GSTP1 (UniProt P09211)
inactive: erlotinib -0.008 | [1] 0.035 | [2] -0.024 | [3] 0.036 | [4] 0.08 | [5] -0.002 | [6] 0.007 | [7] -0.022 | [8] -0.022 | IRAK-1-4 Inhibitor I 0 | ibrutinib -0.012 | [9] 0.042 | ralimetinib 0.011 | [10] -0.003 | [11] 0.021 | [12] -0.011 | [13] 0.036 | [14] -0.025 | [15] 0.003 | [16] -0.003

GTF2B (UniProt Q00403)
inactive: erlotinib 0.043 | [1] 0.031 | [2] -0.023 | [3] 0.011 | [4] 0.066 | [5] 0.039 | [6] -0.031 | [7] -0.023 | [8] 0.018 | IRAK-1-4 Inhibitor I -0.019 | ibrutinib 0.017 | [9] 0.023 | ralimetinib 0.001 | [10] -0.001 | [11] 0.046 | [12] 0.025 | [13] 0.043 | [14] 0.021 | [15] -0.014 | [16] -0.016

GSK3A (UniProt P49840)
inactive: erlotinib -0.029 | [1] -0.103 | [2] -0.034 | [3] 0.069 | [4] 0.066 | [5] 0.295 | [6] 0.182 | [7] 0.163 | [8] 0.018 | IRAK-1-4 Inhibitor I -0.014 | ibrutinib -0.01 | [9] 0.146 | ralimetinib 0.022 | [10] -0.001 | [11] -0.045 | [12] -0.017 | [13] 0.01 | [14] -0.109 | [15] -0.007 | [16] 0.207
